Reference: PubChem BioAssay AID1159596 (NIAID, 2016)
This is one part, drawn at random, of 756 deposited reagents. Over the whole deposit, 143 (19%) were called active. 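Active means the reporter moved past about ±1.5 in either direction; scores are per single siRNA, not per gene; peptidoglycan dose not given.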 A number with no mark means an inactive call. The numbers tell different reagents against one gene apart. The record does not give: the amount of reagent.

Purpose: 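Which toll-like receptor signalling genes are needed for TNF promoter activity driven by peptidoglycan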 (primary screen)
Cells: human THP1 B5 monocytic reporter cells made macrophage-like with PMA
Knock-down reagent: single siRNA against human genes
Duration: assayed 48 to 72 hours after siRNA transfection; peptidoglycan stimulation lasted 4 hours
Challenge: Staphylococcus aureus peptidoglycan for 4 hours; dose not given
Measurement: 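TNF-alpha promoter firefly/renilla luciferase ratio after 4 h s. aureus peptidoglycan; plate median/MAD scaled, robust z versus negative control wells, mean of replicates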
Scale: TNF reporter z-score: higher = stronger TNF promoter reporter response to peptidoglycan
Call rule: In these data the active calls have TNF reporter z-score, replicate mean at about -1.5 or lower, or at about 1.5 or higher
Calls: active = reporter shifted beyond cut (either direction); inactive = reporter near control level

| Target gene | reagent no. | TNF reporter z-score, replicate mean |
| --- | --- | --- |
| BTK | 1 | -0.177 |
| BTK | 2 | -1.13 |
| BTK | 3 | -1.27 |
| BTK | 4 | -1.07 |
| BTK | 5 | 0.96 |
| BTK | 6 | -0.436 |
| TAB2 | 1 | 0.639 |
| TAB2 | 2 | -1.2 |
| TAB2 | 3 | -2.59 (active) |
| TAB2 | 4 | -2.14 (active) |
| TAB2 | 5 | -4.06 (active) |
| TAB2 | 6 | -2.06 (active) |
| CREBBP | 1 | 1.61 (active) |
| CREBBP | 2 | 0.164 |
| CREBBP | 3 | 1.16 |
| CREBBP | 4 | 0.614 |
| CREBBP | 5 | 0.475 |
| CREBBP | 6 | 0.751 |
| DUSP2 | 1 | -0.372 |
| DUSP2 | 2 | -0.85 |
| DUSP2 | 3 | -3.92 (active) |
| DUSP2 | 4 | 0.245 |
| DUSP2 | 5 | 0.0638 |
| DUSP2 | 6 | -0.424 |
| IRAK2 | 1 | -0.633 |
| IRAK2 | 2 | 1.09 |
| IRAK2 | 3 | 0.549 |
| IRAK2 | 4 | 0.0419 |
| IRAK2 | 5 | -2.45 (active) |
| IRAK2 | 6 | 0.956 |
| TICAM2 | 1 | -0.817 |
| TICAM2 | 2 | 0.74 |
| TICAM2 | 3 | 0.255 |
| TICAM2 | 4 | 0.169 |
| TICAM2 | 5 | -0.164 |
| TICAM2 | 6 | -0.167 |
| TICAM1 | 1 | -1.07 |
| TICAM1 | 2 | 0.225 |
| TICAM1 | 3 | -0.178 |
| TICAM1 | 4 | -1.89 (active) |
| TICAM1 | 5 | -0.384 |
| TICAM1 | 6 | -0.336 |
| PELI1 | 1 | -0.774 |
| PELI1 | 2 | 0.127 |
| PELI1 | 3 | 0.0224 |
| PELI1 | 4 | -1.67 (active) |
| PELI1 | 5 | -0.183 |
| PELI1 | 6 | -0.972 |
| SP1 | 1 | -3.47 (active) |
| SP1 | 2 | -2.83 (active) |
| SP1 | 3 | 0.0415 |
| SP1 | 4 | 1.57 (active) |
| SP1 | 5 | -0.329 |
| SP1 | 6 | -1.31 |
| DUSP1 | 1 | 0.526 |
| DUSP1 | 2 | 1.23 |
| DUSP1 | 3 | 0.555 |
| DUSP1 | 4 | 0.864 |
| DUSP1 | 5 | 0.333 |
| DUSP1 | 6 | 0.466 |
| NFKBIA | 1 | -1.17 |
| NFKBIA | 2 | 0.161 |
| NFKBIA | 3 | 1.43 |
| NFKBIA | 4 | -0.808 |
| NFKBIA | 5 | -0.32 |
| NFKBIA | 6 | -0.997 |

Records above whose target name begins with N or n (6):
| Target gene | reagent no. | TNF reporter z-score, replicate mean |
| --- | --- | --- |
| NFKBIA | 1 | -1.17 |
| NFKBIA | 2 | 0.161 |
| NFKBIA | 3 | 1.43 |
| NFKBIA | 4 | -0.808 |
| NFKBIA | 5 | -0.32 |
| NFKBIA | 6 | -0.997 |

Additional entries:
| Target gene | reagent no. | TNF reporter z-score, replicate mean |
| --- | --- | --- |
| PIK3R1 | 1 | -0.793 |
| PIK3R1 | 2 | 0.157 |
| PIK3R1 | 3 | 0.171 |
| PIK3R1 | 4 | 0.874 |
| PIK3R1 | 5 | -2.3 (active) |
| PIK3R1 | 6 | 0.376 |
| UBE2V1 | 1 | -0.337 |
| UBE2V1 | 2 | 0.226 |
| UBE2V1 | 3 | 0.751 |
| UBE2V1 | 4 | -0.745 |
| UBE2V1 | 5 | -0.512 |
| UBE2V1 | 6 | 0.168 |
| AKT2 | 1 | -1.31 |
| AKT2 | 2 | -0.0852 |
| AKT2 | 3 | -0.861 |
| AKT2 | 4 | -0.78 |
| AKT2 | 5 | 0.923 |
| AKT2 | 6 | -0.0499 |
| IRF7 | 1 | -0.544 |
| IRF7 | 2 | -1.13 |
| IRF7 | 3 | -0.424 |
| IRF7 | 4 | -0.895 |
| IRF7 | 5 | -1.17 |
| IRF7 | 6 | -1.38 |
| IRAK1 | 1 | -0.887 |
| IRAK1 | 2 | -3.37 (active) |
| IRAK1 | 3 | -3.78 (active) |
| IRAK1 | 4 | -1.34 |
| IRAK1 | 5 | -2.8 (active) |
| IRAK1 | 6 | -3.25 (active) |
| PIK3R2 | 1 | -0.46 |
| PIK3R2 | 2 | -2.28 (active) |
| PIK3R2 | 3 | -0.0311 |
| PIK3R2 | 4 | -2.25 (active) |
| PIK3R2 | 5 | -0.132 |
| PIK3R2 | 6 | -0.972 |
| MAPK12 | 1 | -0.226 |
| MAPK12 | 2 | -0.191 |
| MAPK12 | 3 | -0.0814 |
| MAPK12 | 4 | -1.46 |
| MAPK12 | 5 | 0.387 |
| MAPK12 | 6 | -1.27 |
| RIPK3 | 1 | -0.0548 |
| RIPK3 | 2 | -0.85 |
| RIPK3 | 3 | 0.102 |
| RIPK3 | 4 | -0.464 |
| RIPK3 | 5 | -0.114 |
| RIPK3 | 6 | 0.0441 |
